# The whole screen tested about 320,000 compounds, of which about 22,000 (6.9%) were called active. The inconclusive results got no clear call from the source; some entries with a clear call stand among them for comparison. Calls come from the whole dose curve; as a rule, active = well fitted inhibition curve with a large enough effect; inconclusive = small, poorly fitted or top-dose-only effect, or another doubt; inactive = no such curve, though single readings can be large or run the other way. Potencies beside an inconclusive call are fits to weak or partial responses and may not hold up.
# Experiment: Primary qHTS for delayed death inhibitors of the malarial parasite plastid, 96 hour incubation
# Conditions: P. falciparum luciferase reporter growth; series mostly up to 28.7 µM
# In short: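 Two-generation exposure (96 h) targets delayed-death phenotype. Reporter parasites carrying integrated firefly luciferase, in red cells at 2% hematocrit and 0.05% parasitemia final, kept at 37 C, 5% CO2; luminescence loss indicates inhibition.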
# Potency is the fitted concentration of half-maximal effect.
row,Compound,Potency
1,CC(OC(=O)c1cccc(S(=O)(=O)N2CCCCCC2)c1)C(=O)Nc1ccc(S(N)(=O)=O)cc1 (centres undefined),"inconclusive: 3.7 µM [inhibitor, partial curve, poor fit]"
2,Cc1cc(S(=O)(=O)Nc2cccc([N+](=O)[O-])c2)c(C)s1,active: 2.08 µM
3,Cc1ccc(C)c(NC(=O)C2CCCN(S(=O)(=O)c3cccnc3)C2)c1 (centres undefined),"inconclusive: 11.7 µM [inhibitor, single point]"
4,Cc1ccc(NC(=O)CCc2ccc(S(=O)(=O)N3CCOCC3)cc2)c(C)c1,"inconclusive: 4.65 µM [inhibitor, partial curve, poor fit]"
5,CCCCCn1c(=O)c(C(=O)NCc2ccncc2)c(O)c2ccccc21,inactive
6,COc1cccc(-c2cc(C(=O)Nc3nc4ccccc4s3)c3ccccc3n2)c1,"inconclusive: 18.5 µM [inhibitor, single point]"
7,O=C(NC(=O)C(F)(F)F)Nc1ccc(S(=O)(=O)Nc2nccs2)cc1,"inconclusive: 18.5 µM [inhibitor, single point]"
8,COc1cccc(NC(=O)CCN2C(=O)C3CC=CCC3C2=O)c1 (centres undefined),"inconclusive: 0.104 µM [inhibitor, partial curve, poor fit]"
9,CC(C)CN(C(=O)c1cccs1)C1CCS(=O)(=O)C1 (centres undefined),inactive
10,O=C(Cc1cccs1)Nc1ccccc1NC(=O)Cc1cccs1,"inconclusive: 18.5 µM [inhibitor, single point]"
11,COc1ccc(OC)c(NC(=O)C(=O)NNC(=O)c2cccs2)c1,inactive
12,c1ccc(C(c2ccccc2)c2noc(CN3CCC(c4ccncc4)CC3)n2)cc1,"inconclusive: 18.5 µM [inhibitor, single point]"
13,CS(=O)(=O)N1CCC(Oc2ccccc2C(=O)N2CCCCC2CO)CC1 (centres undefined),"inconclusive: 3.7 µM [inhibitor, full curve, poor fit]"
14,CCC1CCCCN1CCCNC(=O)c1ccc2nc(N3CCC(C)CC3)sc2c1 (centres undefined),"inconclusive: 4.15 µM [inhibitor, single point]"
15,CN(c1ccccc1)C1CCCCC1NS(=O)(=O)c1ccc(Cl)cc1 (centres undefined),"inconclusive: 18.5 µM [inhibitor, partial curve, poor fit]"
16,CCC1=C(OC(=O)N(CC)CC)N2C(=O)OC(=NCC(=O)OC)[C@]2(Cc2ccccc2)[C@H]2C1=CC[C@H]1C(=O)N(c3ccccc3)C(=O)[C@H]12,active: 9.28 µM
17,CCOc1ccc(-n2c(SCC(=O)NC)nnc2-c2ccco2)cc1,inactive
18,COc1cc(OC)c2ccc(=O)oc2c1C(CCN1CCCC1)c1ccc2c(c1)OCO2 (centres undefined),"inconclusive: 13.1 µM [inhibitor, single point]"
19,CCC(=O)Nc1cccc(C(=O)OC)c1,inactive
20,COc1ccc(OC)c(NC(=O)c2ccc(NC3=NC4CS(=O)(=O)CC4S3)cc2)c1 (centres undefined),"inconclusive: 5.22 µM [inhibitor, partial curve]"
21,O=C(C[n+]1ccccc1)c1ccc(NC(=O)c2ccccc2)cc1,"inconclusive: 6.57 µM [inhibitor, partial curve]"
22,COc1ccc(CCNCc2ccccc2F)cc1OC,"inconclusive: 18.5 µM [inhibitor, single point]"
23,Cc1ccccc1OCc1nnc(SCC(=O)NCc2ccco2)n1C,"inconclusive: 18.5 µM [inhibitor, single point]"

# 3 entries from above, ordered by SMILES length, smallest number first.
row,Compound,Potency
10,O=C(Cc1cccs1)Nc1ccccc1NC(=O)Cc1cccs1,"inconclusive: 18.5 µM [inhibitor, single point]"
7,O=C(NC(=O)C(F)(F)F)Nc1ccc(S(=O)(=O)Nc2nccs2)cc1,"inconclusive: 18.5 µM [inhibitor, single point]"
4,Cc1ccc(NC(=O)CCc2ccc(S(=O)(=O)N3CCOCC3)cc2)c(C)c1,"inconclusive: 4.65 µM [inhibitor, partial curve, poor fit]"

# (more compounds)

row,Compound,Potency
1,CS(=O)(=O)c1ccc2nc(NC(=O)c3ccc(Cn4cc(Br)cn4)o3)sc2c1,"inconclusive: 11.7 µM [inhibitor, partial curve]"
2,CCc1ccccc1NC(=O)COc1cccc(-n2cnnn2)c1,inactive
3,O=C(Cc1ccccc1)Nc1ccc(NC(=O)C2CCCCC2)nc1,"inconclusive: 13.1 µM [inhibitor, single point]"
4,C/C(CC(=O)NC(C)C)=N\NC(=O)COc1cc(C)c(Br)cc1Br,"inconclusive: 0.0928 µM [inhibitor, full curve, poor fit]"
5,FC(F)(F)c1cc(Cl)c2nc(-c3ccccc3)cn2c1,inactive
6,COc1ccc(N2CCN(C(=O)c3ccc(C)c(NC(=O)C4=C(C)OCCS4)c3)CC2)cc1,"inconclusive: 4.15 µM [inhibitor, partial curve, poor fit]"
7,CCN(CC)S(=O)(=O)c1cccc(N=Nc2sc(N)nc2C)c1,active: 11.7 µM
8,COc1ccc(C2C(C(=O)c3ccccc3)=C(C)Nc3nc4ccccc4n32)cc1OC (centres undefined),active: 3.29 µM
9,CCN(CC(=O)NCc1ccc(F)cc1)C(=O)COc1ccc2ccccc2c1,"inconclusive: 16.5 µM [inhibitor, single point]"
10,NC(CSCC(=O)O)C(=O)O (centres undefined),inactive
11,Cc1cnc(C(=O)NC2CCSc3ccccc32)cn1 (centres undefined),"inconclusive: 18.5 µM [inhibitor, single point]"
12,NC(CC(=O)O)c1ccc(Br)cc1 (centres undefined),active: 9.28 µM
13,Cc1ccc(S(=O)(=O)N2CCN(C(=O)CCn3cncn3)CC2)cc1,"inconclusive: 18.5 µM [inhibitor, single point]"
14,Cc1ccccc1-n1c(SCC(=O)NCc2cccs2)nc2ccccc2c1=O,"inconclusive: 2.94 µM [inhibitor, single point]"
15,O=C(NC(=S)NCCSc1ccccc1)c1cccnc1,inactive
16,COc1ccc(-c2c(C)nn3c(Cl)c(C)c(C)nc23)cc1,"inconclusive: 18.5 µM [inhibitor, single point]"
17,CN1C(=O)CS(=O)c2ccc(C(=O)NC3CC3)cc21 (centres undefined),"inconclusive: 13.1 µM [inhibitor, single point]"
18,Cc1ccc(S(=O)(=O)N2CCOCC2)cc1NC(=O)C1=NN(c2ccccc2)C(=O)CC1,"inconclusive: 8.28 µM [inhibitor, partial curve]"
19,CC(C)CNc1oc(-c2ccco2)nc1C#N,inactive
20,O=C(CSc1nc2ccccc2n1-c1ccccc1)Nc1ncc(Cl)cc1Cl,active: 10.4 µM
21,Cc1ccc(-n2c(Cl)c(Cl)nc(Cl)c2=O)cc1,"inconclusive: 18.5 µM [inhibitor, single point]"
22,O=C(O)C1C2CC2CN1C(=O)c1ccc(Cl)cc1 (centres undefined),"inconclusive: 4.15 µM [inhibitor, partial curve, poor fit]"
23,CC[N+]1(C)[C@@H]2CC[C@H]1CC(OC(=O)[C@H]1CCC(C(=O)OC3C[C@H]4CC[C@@H](C3)[N+]4(C)CC)(c3ccccc3)c3ccccc31)C2 (some centres undefined),active: 8.28 µM

row,Compound,Potency
1,COc1ccc(/C=N/NC(=O)c2cccc(NC(C)=O)c2)c(C(=O)O)c1OC,"inconclusive: 10.4 µM [inhibitor, single point]"
2,COc1ccccc1NC(=O)Nc1nc(CC(=O)N2CCN(c3ccc(F)cc3)CC2)cs1,"inconclusive: 5.86 µM [inhibitor, partial curve]"
3,CC(=O)Nc1ccc(S(=O)(=O)NNc2ccc([N+](=O)[O-])cc2)cc1,"inconclusive: 14.7 µM [inhibitor, partial curve]"
4,Cc1ccc(NC(=O)CCN2CCOCC2)cc1C,active: 0.928 µM
5,CC(C)NC(=O)c1ccc(-n2nc(C(F)(F)F)c3c2CCCC3)cc1,"inconclusive: 18.5 µM [inhibitor, single point]"
6,CCOC(=O)c1nnn(-c2nonc2-n2cccc2)c1C,"inconclusive: 18.5 µM [inhibitor, single point]"
7,O=C(NC1CC1)C1=C[C@@H](c2ccccc2)C[C@@H](OCCCCO)O1,inactive
8,O=C(COc1coc(CN2CCN(c3ccccc3)CC2)cc1=O)NC1CCCC1,"inconclusive: 13.1 µM [inhibitor, single point]"
9,COC(=O)c1ccc(COc2ccc(/C=N/NC(N)=S)cc2)o1,"inconclusive: 10.4 µM [inhibitor, single point]"
10,COC(=O)c1sccc1NC(=O)c1ccc(Br)s1,inactive
11,CCOC(=O)c1nnc(-c2ccccc2)nc1Sc1c(Cl)cccc1Cl,"inconclusive: 13.1 µM [inhibitor, single point]"
12,CCC(=O)c1ccc(N2CCN(C(=O)c3cccs3)CC2)c(F)c1,"inconclusive: 18.5 µM [inhibitor, single point]"
13,c1cncc(-c2ccc3ncnc(NCc4cccs4)c3c2)c1,active: 9.28 µM
14,COc1ccc(-n2nc(C(=O)NCCCN3CCCC3=O)c3c4ccccc4n(C)c3c2=O)cc1Cl,"inconclusive: 18.5 µM [inhibitor, single point]"
15,COc1ccc(-c2nc3n(n2)C(c2ccccc2)C2=C(CCCC2=O)N3)cc1OC (centres undefined),"inconclusive: 18.5 µM [inhibitor, single point]"
16,O=C(Nc1ccc(O)c(-c2nc3ccccc3o2)c1)C1(c2ccc(Br)cc2)CCCC1,"inconclusive: 0.828 µM [inhibitor, full curve]"
17,Cc1ccc(C2(CCNC(C)c3cccs3)CCOC(C(C)C)C2)cc1 (centres undefined),"inconclusive: 0.0828 µM [inhibitor, full curve, poor fit]"
18,CCOC(=O)c1c(C)n(C(=O)c2ccco2)c(=O)n1C(=O)c1ccco1,inactive
19,CCc1cc(C(=O)OC)c(NC(=O)CN2CCN(C(=O)c3ccco3)CC2)s1,"inconclusive: 8.28 µM [inhibitor, partial curve, poor fit]"
20,CC(=O)NCCNC(=O)c1ccc(Cn2c(=O)[nH]c3ccsc3c2=O)cc1,"inconclusive: 2.33 µM [inhibitor, full curve]"
21,O=C(O)C1C2C=CC(C2)C1C(=O)NCCCN1CCOCC1 (centres undefined),active: 11.7 µM
22,COc1ccc(OCc2cc(C(=O)NC(C)Cc3ccccn3)no2)c(Cl)c1 (centres undefined),inactive
23,CCOC(=O)c1c(CN2CCN(C)CC2)n(-c2ccccc2)c2cc(Br)c(O)cc12,"inconclusive: 1.47 µM [inhibitor, full curve, poor fit]"
